Values joined by “and” are separate entries in the source; they are usually repeats but may differ in a detail not shown here. Equal values may be shown once. The list shows a part of the results. Single values are uncertain here, since repeats match poorly.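 HEK293T cells were given each compound shortly before transfection with a reporter in which red mCherry is followed by the SARS-CoV-2 frameshift element and then GFP in the −1 frame, so GFP appears only after frameshifting.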
tested on: HEK293T; experiment: percent viability (nuclei count) relative to control; higher = more viable cells; details: 10 µM; 24 h

SMILES	percent viability
Cc1onc(-c2c(F)cccc2Cl)c1C(=O)N[C@@H]1C(=O)N2[C@@H]1SC(C)(C)[C@@H]2C(=O)O [Floxacillin]	42.8%
COc1ccc(CCN(C)CCCC(C#N)(c2ccc(OC)c(OC)c2)C(C)C)cc1OC (centres undefined) [verapamil]	180% and 314%
Cc1ccc(Cl)c(Nc2ccccc2C(=O)O)c1Cl [meclofenamic acid]	187%
CC(=O)Oc1c(C)c(C)c2c(c1C)CCC(C)(CCC[C@H](C)CCC[C@H](C)CCCC(C)C)O2 (some centres undefined)	290%
O=C1C(O)=C(O)C(=O)C(O)=C1O [tetroquinone]	396%
CCOC(=O)[C@H](CCc1ccccc1)N[C@@H](C)C(=O)N1CC2(C[C@H]1C(=O)O)SCCS2 [Spirapril]	287%
Nc1nc2c(ncn2COC(CO)CO)c(=O)[nH]1 [ganciclovir]	308%
CC=CC(=O)N(CC)c1ccccc1C [Crotamiton]	146%
CC#CCC(C)[C@H](O)/C=C/[C@@H]1[C@H]2c3cccc(CCCC(=O)O)c3O[C@H]2C[C@H]1O (mixture of isomers) [beraprost]	168%
CC(/C=C1\SC(=S)N(CC(=O)O)C1=O)=C\c1ccccc1 [epalrestat]	183%
N/N=c1\[nH][nH]/c(=N\N)c2ccccc12 [dihydralazine]	223%
C=C[C@H]1CN2CC[C@H]1C[C@H]2[C@H](O)c1ccnc2ccc(OC)cc12 [Aflukin]	256%
CCCCC(O)c1ccccc1 (centres undefined) [fenipentol]	342%
CC1(C)[C@H](C(=O)O)N2C(=O)C[C@H]2S1(=O)=O	163%
N[C@H]1CONC1=O [levcycloserine]	137%
O=C(CCBr)N1CCN(C(=O)CCBr)CC1 [pipobroman]	345%
C[C@@H]1C[C@H]2[C@@H]3C[C@H](F)C4=CC(=O)C=C[C@]4(C)[C@@]3(F)[C@@H](O)C[C@]2(C)[C@@]1(OC(=O)c1ccco1)C(=O)SCF [fluticasone furoate]	247%
Nc1nc2ccc(OC(F)(F)F)cc2s1	306%
CC(C)[C@@H]1CC[C@@H](C)C[C@H]1O [levomenthol]	319%
NC(=O)NC1NC(=O)NC1=O (centres undefined)	144%

Some of the entries so far, as labelled records.
CC=CC(=O)N(CC)c1ccccc1C [Crotamiton]
  percent viability: 146%
CC#CCC(C)[C@H](O)/C=C/[C@@H]1[C@H]2c3cccc(CCCC(=O)O)c3O[C@H]2C[C@H]1O (mixture of isomers) [beraprost]
  percent viability: 168%

The listing continues.

SMILES	percent viability
C=C(C)Cn1c(N)cc(=O)n(C)c1=O [amisometradine]	292%
CN(C)CCOC(C)(c1ccccc1)c1ccc(Br)cc1 (centres undefined) [embramine]	465%
CCN(Cc1ccncc1)C(=O)C(CO)c1ccccc1 (centres undefined) [Tropicamide]	212%
CC1(C)O[C@@H]2C[C@H]3[C@@H]4C[C@H](F)C5=CC(=O)C=C[C@]5(C)[C@H]4[C@@H](O)C[C@]3(C)[C@]2(C(=O)CO)O1 [Nasalide]	207%
CO[C@H]1C[C@@H]2CC[C@@H](C)[C@@](O)(O2)C(=O)C(=O)N2CCCC[C@H]2C(=O)O[C@H]([C@H](C)C[C@@H]2CC[C@@H](OCCO)[C@H](OC)C2)CC(=O)[C@H](C)/C=C(\C)[C@@H](O)[C@@H](OC)C(=O)[C@H](C)C[C@H](C)/C=C/C=C/C=C/1C [Everolimus]	153%
Nc1nc(=O)[nH]cc1F [flucytosine]	258%
CCC1C(=O)NC(=O)C1(C)c1ccccc1 (centres undefined) [fenimide]	98.8%
CCCSS/C(CCO)=C(/C)N(C=O)Cc1cnc(C)nc1N [prosultiamine]	206%
CN1CCC(Nc2ncc3ncnc(Nc4ccc(F)c(Cl)c4)c3n2)CC1 [falnidamol]	259%
Cc1cc(C(=O)NCCc2ccc(S(=O)(=O)NC(=O)NN3CCCCCC3)cc2)no1 [Glisoxepide]	42%
COc1ccc2c(O[C@@H]3C[C@H]4C(=O)N[C@]5(C(=O)NS(=O)(=O)C6(C)CC6)C[C@H]5/C=C\CCCCC[C@H](NC(=O)c5ccn(C)n5)C(=O)N4C3)cc(OC(C)C)nc2c1C	125%
Cc1cc2nc3ccc(=[N+](C)C)cc-3sc2cc1N [tolonium chloride]	191%
C=C1/C(=C\C=C2/CCC[C@]3(C)[C@@H]([C@H](C)CC[C@@H](O)C(C)C)CC[C@@H]23)C[C@@H](O)C[C@@H]1O [tacalcitol]	71.8%
CC(C)CCCC(C)NC(C)C (centres undefined) [iproheptine]	86.7%
NS(=O)(=O)c1cc(C(=O)O)c(NCc2ccco2)cc1Cl [furosemide]	222% and 199%
CCc1cccc(NC2CC3CCC2C3)c1 (centres undefined)	10.1%
CCCN(CC)C(CC)C(=O)Nc1c(C)cccc1C (centres undefined) [etidocaine]	92.3%
CS(=O)(=O)Nc1cc2occ(NC=O)c(=O)c2cc1Oc1ccccc1 [iguratimod]	196%
Nc1ccn([C@@H]2O[C@H](CO)[C@@H](O)C2(F)F)c(=O)n1 [gemcitabine]	210%
